# Measurements published in PubChem BioAssay AID652054 (National Center for Advancing Translational Sciences (NCATS), 2013).
# The chains behind the UniProt entries cited, without tags or fusion partners.
# UniProt P35462, whole entry, looked up: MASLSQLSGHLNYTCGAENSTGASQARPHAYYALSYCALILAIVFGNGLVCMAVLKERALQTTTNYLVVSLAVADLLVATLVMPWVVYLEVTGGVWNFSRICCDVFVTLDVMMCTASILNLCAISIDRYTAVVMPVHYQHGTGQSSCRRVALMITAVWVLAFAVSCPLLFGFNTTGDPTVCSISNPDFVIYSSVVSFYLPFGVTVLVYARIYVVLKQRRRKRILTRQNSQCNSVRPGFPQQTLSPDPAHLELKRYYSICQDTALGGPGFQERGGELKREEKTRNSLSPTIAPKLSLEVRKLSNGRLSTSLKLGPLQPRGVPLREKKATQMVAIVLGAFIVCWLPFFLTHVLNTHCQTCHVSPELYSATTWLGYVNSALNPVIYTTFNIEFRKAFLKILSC
# About 9,100 (2.5%) of roughly 360,000 compounds were called active. The inconclusive results got no clear call from the source; some entries with a clear call stand among them for comparison. No stated cut-off is given here; in the data, active means max response below about -50%; inconclusive means no clear call, values can overlap the other calls; inactive means above that.
# Molecular target: D(3) dopamine receptor (Homo sapiens) (UniProt P35462)
# Test: qHTS of D3 Dopamine Receptor Antagonist: qHTS
# Conditions: D3R cells, DiscoveRx beta-arrestin luminescence, antagonist mode; stronger effect = lower value
# How it was run: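 Cells expressing the human receptor were seeded at 1500 cells/well, incubated overnight at 37 degrees C in 5% CO2, then exposed to library compounds with dopamine controls for 90 minutes at 37 degrees C before luminescent detection.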
# On the % scale 0 is the no-effect control and ±100 the full control effect.
row,SMILES,"max response, negative = inhibition"
1,CCN(CC)CCCN=C1N[C@@H](c2cccc(C(F)(F)F)c2)C(C(=O)OC)=C(C)N1CC,inactive: 2.54%
2,CCc1ccc(NC(=S)/N=C(\N)Nc2nc(C)c3cc(CC)ccc3n2)cc1,inconclusive: -33.7%
3,Cc1n[nH]c(=S)n1/N=C/c1ccc(OCc2ccc(Cl)cc2)cc1,inconclusive: -33.3%
4,CCN(CC)S(=O)(=O)c1ccc(C(=O)Nc2nnc(C(C)C)s2)cc1,active: -68.7%
5,C[C@H]1CN([C@@H](C)CO)C(=O)c2cc(NC(=O)C3CCCCC3)ccc2O[C@H]1CN(C)C(=O)Nc1ccc2c(c1)OCO2,inconclusive: -30.2%
6,CC(OC(=O)c1ccccc1O)C(=O)Nc1ccc(Cl)cn1 (centres undefined),inactive: -25.7%
7,CN(C)S(=O)(=O)c1ccc(NC(=O)CN2C(=O)NC3(CCCC3)C2=O)cc1,inactive: 12%
8,COc1ccc(C(=O)NCC(c2ccccc2)c2ccccc2)cc1S(=O)(=O)N1CCOCC1,inactive: -14.7%
9,N#CCCN(Cc1ccccc1)C(C(=O)NC1CCCCC1)c1cc2ccccc2o1 (centres undefined),inactive: 13%
10,CC(C)(C)c1ccc(CC(=O)N2CCC2(C)C(=O)NS(=O)(=O)c2ccc(Cl)cc2)cc1 (centres undefined),inconclusive: -47.3%
11,CC(C)C1C(=O)N(Cc2cn(CCC3OCCO3)nn2)CCS(=O)(=O)N1Cc1ccc(-c2ccc(Cl)cc2)cc1 (centres undefined),inconclusive: -35.7%
12,O=C(CNC(=O)c1cccc(-n2cnnn2)c1)Nc1ccc(F)c(F)c1,inconclusive: -42%
13,O=C(Nc1cccc(S(=O)(=O)N2CCOCC2)c1)c1ccc(=O)[nH]c1,inactive: -8.39%
14,CN(C)CCCN(C(=O)/C=C/c1cccs1)c1nc2c(F)cccc2s1,inconclusive: -36.8%
15,S=c1[nH]nc(CCCc2n[nH]c(=S)o2)o1,inconclusive: -40.7%
16,c1ccc(Cn2c(CNc3nc4ccccc4n3CCN3CCCCC3)nc3ccccc32)cc1,inconclusive: -37.6%
17,CC(=O)Oc1ccc2c(c1)C(=O)c1ccccc1CO2,inconclusive: -41.2%
18,CCOC(=O)c1cnn(-c2ccccc2)c1-n1cccc1C(=O)C(=O)Nc1ccccc1C(F)(F)F,inconclusive: -35%
19,COc1ccc(CCNC(=O)c2ccco2)cc1,inconclusive: -36.7%
20,O=C(NCCN1CCc2ccccc2C1)Nc1ccc(F)cc1,active: -77.2%
21,CCN(CC)CCC#CC(O)(c1ccccc1)C1CCCCC1 (centres undefined),inconclusive: -38.3%
22,Cc1ccc(C)c(Cn2nc3c4ccccc4n(Cc4ccccc4)cc-3c2=O)c1,inconclusive: -33.8%

row,SMILES,"max response, negative = inhibition"
1,CC(=O)Nc1ccc(CN2CCN(CCc3ccccc3)C(CCO)C2)cc1 (centres undefined),inactive: -14%
2,Cc1ccc(C(=O)CCC(=O)N2CCN(C/C=C/c3ccccc3)CC2)cc1,inactive: -0.0973%
3,CNc1nc(N)nc(-c2cc(Cl)ccc2OC)n1,inconclusive: -30.7%
4,O=C1NC(=Nc2ccccc2)S/C1=C\c1ccccc1,inactive: 5.53%
5,COc1ccc(Cl)cc1N(C(=O)c1ccco1)C(C(=O)NC1CCCC1)c1cccnc1 (centres undefined),inconclusive: -33.7%
6,Cc1ccc(S(=O)(=O)n2nc(OC(=O)c3cccs3)cc2N)cc1,inconclusive: -37.8%
7,COc1cccc(NC(=O)CSc2nc3ccccc3cc2Cc2ccccc2)c1,active: -52.3%
8,Cn1c(=O)[nH]c(=O)c2c1nc(SCCN1CCCCC1)n2CCCc1ccccc1,active: -68.2%
9,O=C(NCN1CCc2ccccc2C1)c1ccccc1,inconclusive: -43.2%
10,Cn1c(SCC(=O)N2c3ccccc3CCc3ccccc32)nnc1-c1cc2ccccc2cc1O,inconclusive: -42.3%
11,CCC1CCCCN1CCCCOc1cccc(Cl)c1 (centres undefined),active: -96.2%
12,Cc1cccnc1NCC(O)COc1ccccc1 (centres undefined),inactive: -9.89%
13,CSc1nc2sc3c(c2c(=O)n1CC(C)C)CC(C)(C)OC3,inactive: -16.6%
14,Cc1nc2c(-c3ccc(Cl)cc3)c(C)[nH]n2c(=O)c1Cc1ccccc1,inconclusive: -30.5%
15,COc1cc(C(=O)Nc2nc(-c3cccs3)cs2)cc(OC)c1OC,inactive: 5.72%
16,CCOc1ccc(C(=O)Nc2ccc(S(=O)(=O)N3C[C@@H]4C[C@@H](C3)c3cccc(=O)n3C4)cc2)cc1,inactive: -16.1%
17,Cc1c(C(=O)NCc2ccc(C#N)cc2)sc(=O)n1Cc1ccccn1,inactive: 19.3%
18,COc1cc(C(=O)N(Cc2cc3ccccc3[nH]c2=O)CC2CCCO2)cc(OC)c1OC (centres undefined),inconclusive: -31.6%
19,CC(/C=C/C(=O)c1ccc(C)cc1)=C\c1ccccc1,active: -61.2%
20,Cc1noc(C)c1NC(=O)Nc1ccc2c(c1)C(=O)N([C@H](C)CO)C[C@H](C)[C@H](CN(C)C(=O)NC1CCCCC1)OCCCC[C@@H](C)O2,inconclusive: -34.1%
21,O=C(O)/C=C/c1cccc(OCc2ccccc2)c1,inconclusive: -33.4%
22,Cc1nc(SCC(=O)NC(C)(C#N)C2CC2)c2c(-c3cccs3)csc2n1 (centres undefined),inactive: 7.5%

# Three entries from above, ordered by SMILES length, largest number first:
row,SMILES,"max response, negative = inhibition"
2,Cc1ccc(C(=O)CCC(=O)N2CCN(C/C=C/c3ccccc3)CC2)cc1,inactive: -0.0973%
7,COc1cccc(NC(=O)CSc2nc3ccccc3cc2Cc2ccccc2)c1,active: -52.3%
4,O=C1NC(=Nc2ccccc2)S/C1=C\c1ccccc1,inactive: 5.53%
